Measurements reported in US8765741B2, “5,6-dihydro-1H-pyridin-2-one compounds” (Anadys Pharmaceuticals, Inc., priority 2007, dated 2014).

Amino acid sequences for entries named in this document (tags omitted). Residues count along the entry.
UniProt P26663, 2420-3010: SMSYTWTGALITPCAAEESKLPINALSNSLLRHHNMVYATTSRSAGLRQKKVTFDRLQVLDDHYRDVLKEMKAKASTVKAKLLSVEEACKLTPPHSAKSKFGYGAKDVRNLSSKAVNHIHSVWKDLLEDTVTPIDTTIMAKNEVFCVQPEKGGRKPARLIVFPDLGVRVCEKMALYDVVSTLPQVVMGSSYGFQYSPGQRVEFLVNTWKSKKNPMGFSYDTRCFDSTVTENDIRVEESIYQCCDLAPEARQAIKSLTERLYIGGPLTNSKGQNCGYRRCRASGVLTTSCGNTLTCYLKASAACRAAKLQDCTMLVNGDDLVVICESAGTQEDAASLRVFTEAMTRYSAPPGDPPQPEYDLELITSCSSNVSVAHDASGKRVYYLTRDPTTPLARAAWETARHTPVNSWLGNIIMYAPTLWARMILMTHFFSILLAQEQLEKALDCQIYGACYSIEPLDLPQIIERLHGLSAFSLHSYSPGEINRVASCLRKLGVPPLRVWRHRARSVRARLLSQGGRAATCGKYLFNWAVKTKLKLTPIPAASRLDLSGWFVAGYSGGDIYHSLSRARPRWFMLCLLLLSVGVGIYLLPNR

Molecular target: NS5B polymerase (Hepatitis C virus genotype 1b, UniProt P26663)
Assay: biochemical
Procedure: Compounds were tested for HCV polymerase inhibition. Assays were performed in a 96-well streptavidin-coated FlashPlate using 20 nM enzyme, 0.5 μCi of [α-^33P]GTP, 0.6 μM GTP, and 250 nM 5′biotinylated oligo (rG13)/poly rC in 20 mM Tris-HCl, pH 7.5, 5 mM MgCl2, 5 mM dithiothreitol, 0.1 g/L bovine serum albumin, and 100 U/mL RNAse inhibitor. The reaction was stopped by aspiration after 75 min at 28° C. and the plate was washed several times. After washing and drying the plate, incorporated radioactivity was counted using a Microbeta scintillation counter. IC50 values were calculated relative to the uninhibited control and inhibition data were fitted to a 4-parameter IC50 equation.

## Cc1cc(CN2C(=O)C(C3=NS(=O)(=O)c4cc(NS(C)(=O)=O)ccc4N3)=C(O)[C@@H]3[C@H]4CC[C@H](C4)[C@@H]32)ccc1F [Example 15, N-{3-[(1R,2S,7R,8S)-3-(4-Fluoro-3-methyl-benzyl)-6-hydroxy-4-oxo-3-aza-tricyclo[6.2.1.0^2,7]undec-5-en-5-yl]-1,1-dioxo-1,4-dihydro-1λ^6-benzo[1,2,4]thiadiazin-7-yl}-methanesulfonamide]
  IC50: < 20 nM
